Reference: PubChem BioAssay AID652272 (Drosophila RNAi Screening Center, 2013)
The deposit covers about 21,000 reagents; below is an unselected part of those that have a named target and a result. Of all reagents, 503 (2.4%) are marked active. 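Raw plate light values, not normalised; calls rest on replicate z-scores that were not deposited; hits include reporter decreases as well as increases.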 Reagents against one gene are numbered here. Names joined by + are all predicted targets of the reagent. Not given: the amount of reagent, the time to read-out.

- Aim: 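Genome-wide knock-down search for components of Hedgehog signalling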 (primary screen)
- Cell system: Drosophila clone 8 (Cl8) cells
- Reagent: long dsRNA against Drosophila genes
- Detection: 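Firefly light from a Hedgehog-responsive ptc promoter reporter and Renilla reference light, both read on a plate reader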
- Scale: firefly Hh reporter signal: higher = more ptc reporter light; Renilla reference signal: higher = more Renilla control light
- Hit rule: 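Called a hit if the two-replicate mean z-score lies below -2 or above +3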
- Calls: active = hit: reporter lowered or raised; inactive = not a hit

target gene | reagent | firefly Hh reporter signal, replicate 1 | firefly Hh reporter signal, replicate 2 | firefly Hh reporter signal, replicate 3 | Renilla reference signal, replicate 1 | Renilla reference signal, replicate 2 | activity call
luna | 1 | 1.75e5 | 2.77e5 | – | 4618 | 12874 | inactive
luna | 2 | 32955 | 6424 | – | 1040 | 467 | inactive
luna | 3 | 1.67e5 | 7.70e5 | 84136 | 3346 | 5609 | inactive
Myo95E (Myosin 95E) | 1 | 1.28e5 | 53392 | – | 4891 | 2443 | inactive
CG9302 | 1 | 5.81e5 | 1.00e5 | – | 3830 | 3830 | inactive
PhKgamma (Phosphorylase kinase gamma) | 1 | 96182 | 75868 | – | 2369 | 1952 | inactive
rho (rhomboid) | 1 | 93536 | 49715 | – | 2773 | 3808 | inactive
CG13801 | 1 | 86504 | 50323 | – | 2880 | 3581 | inactive
CG10700 | 1 | 73668 | 48856 | – | 1804 | 3985 | inactive
lz (lozenge) | 1 | 78758 | 6.26e5 | 2.32e5 | 1912 | 5649 | inactive
Toll-9 | 1 | 65821 | 55541 | – | 2755 | 2352 | inactive
RanBPM (Ran-binding protein M) | 1 | 46196 | 42774 | – | 2626 | 1867 | inactive
CG9890 | 1 | 71602 | 48517 | – | 1417 | 4569 | inactive
JIL-1 (JIL-1 kinase) | 1 | 91904 | 99841 | – | 6067 | 4785 | inactive
CG4563 | 1 | 88680 | 57264 | – | 1571 | 4212 | inactive
Wdr81 (WD repeat domain 81) | 1 | 63200 | 48704 | – | 3073 | 2400 | inactive
sti (sticky) | 1 | 25483 | 45138 | 70874 | 4665 | 4674 | inactive
sti (sticky) | 2 | 29433 | 33047 | 59985 | 3937 | 4246 | inactive
CG15170 | 1 | 58592 | 40857 | – | 1616 | 3264 | inactive
comm (commissureless) | 1 | 1.26e5 | – | – | 5606 | 3873 | inactive
CG2540 | 1 | 1.37e5 | 95284 | – | 3412 | 2413 | inactive
EbpII (Ejaculatory bulb protein II) | 1 | 1.03e5 | 1.32e5 | – | 4835 | 5424 | inactive
Axud1 (AXIN1 up-regulated 1) | 1 | 1.34e5 | 78177 | – | 2880 | 2133 | inactive
CG9416 | 1 | 72353 | 88336 | – | 2249 | 5851 | inactive
CG7368 | 1 | 59192 | 77575 | 3.97e5 | 5301 | 2280 | inactive
dyl (dusky-like) | 1 | 82194 | 47209 | – | 4621 | 2593 | inactive
dyl (dusky-like) | 2 | 1.25e5 | 54304 | – | 5376 | 295 | inactive
Delta | 1 | 6.56e5 | 96201 | – | 31453 | 2601 | inactive
CG1239 | 1 | 1.17e5 | 95489 | – | 4465 | 3652 | inactive
TwdlK (TweedleK) | 1 | 80277 | 61707 | – | 1304 | 1227 | inactive
c(3)G (crossover suppressor on 3 of Gowen) | 1 | 1.02e5 | 99754 | – | 3392 | 3714 | inactive
fh (frataxin) | 1 | 76120 | 3.10e5 | – | 3005 | 10967 | inactive
Shal (Shaker cognate l) | 1 | 2.61e5 | – | – | 5408 | – | inactive
Shal (Shaker cognate l) | 2 | 1.49e5 | 1.55e5 | – | 5456 | 4732 | inactive
Lcp65Ac | 1 | 85992 | 52313 | – | 8918 | 4544 | inactive
CG7639 | 1 | 81756 | 38080 | – | 2166 | 3152 | inactive
NC2beta (Negative Cofactor 2beta) | 1 | 93980 | 1.05e5 | – | 4969 | 4549 | inactive
CG10311 | 1 | 86773 | 1.09e5 | – | 2809 | 2692 | inactive
CG13476 | 1 | 98464 | – | – | 2032 | 2616 | inactive
Rab23 | 1 | 77754 | 1.33e5 | – | 3096 | 3106 | inactive
CG7179 | 1 | 62977 | 46107 | – | 1523 | 4464 | inactive
CG12994 | 1 | 5.33e5 | 1.49e5 | – | 32625 | 3568 | inactive
CG12994 | 2 | 71584 | 1.76e5 | – | 2443 | 8440 | inactive
CG8813 | 1 | 98407 | 1.02e5 | – | 3681 | 3859 | inactive
CAH9 (Carbonic anhydrase 9) | 1 | 1.28e5 | 1.50e5 | – | 4981 | 3496 | inactive

The list goes on, starting with the last 3 of the part before.
target gene | reagent | firefly Hh reporter signal, replicate 1 | firefly Hh reporter signal, replicate 2 | firefly Hh reporter signal, replicate 3 | Renilla reference signal, replicate 1 | Renilla reference signal, replicate 2 | activity call
CG12994 | 2 | 71584 | 1.76e5 | – | 2443 | 8440 | inactive
CG8813 | 1 | 98407 | 1.02e5 | – | 3681 | 3859 | inactive
CAH9 (Carbonic anhydrase 9) | 1 | 1.28e5 | 1.50e5 | – | 4981 | 3496 | inactive
ClC-c (Chloride channel-c) | 1 | 64371 | 48048 | – | 2635 | 1988 | inactive
CG10182 | 1 | 4.77e5 | 1.07e5 | – | 26433 | 3430 | inactive
amrt (amaretto) | 1 | 92537 | 1.49e5 | – | 3500 | 7040 | inactive
RtcB (RtcB RNA ligase) | 1 | 1.39e5 | 64626 | – | 3536 | 6504 | inactive
lqfR (liquid facets-Related) | 1 | 1.09e5 | 67120 | – | 3300 | 2005 | inactive
lqfR (liquid facets-Related) | 2 | 1.08e6 | 2.03e5 | – | 56635 | 4634 | inactive
PIG-Wa (Phosphatidylinositol glycan anchor biosynthesis class W a) | 1 | 94171 | 1.20e5 | – | 2371 | 3088 | inactive
CG12477 | 1 | 1.16e5 | – | – | 134 | 2647 | inactive
Ada1-1 + Ada1-2 | 1 | 6.99e5 | 2.61e5 | – | 41034 | 11225 | inactive
Ada1-1 + Ada1-2 | 2 | 4.83e5 | 2.05e5 | – | 29010 | 8934 | inactive
Eb1 | 1 | 1.20e5 | 47821 | – | 2737 | 3202 | inactive
CG15599 | 1 | 49349 | 1.65e5 | – | 1648 | 6906 | inactive
ana3 (anastral spindle 3) | 1 | 83868 | 48410 | – | 2160 | 3712 | inactive
raw | 1 | 67555 | 52179 | – | 1492 | 5184 | inactive
raw | 2 | 73106 | 47603 | – | 1904 | 3881 | inactive
CG11378 | 1 | 64280 | 1.47e5 | – | 1914 | 6153 | inactive
rho-6 (rhomboid-6) | 1 | 1.11e5 | 69924 | – | 3364 | 6608 | inactive
CG31076 | 1 | 88312 | 1.04e5 | – | 3307 | 3328 | inactive
Syx8 (Syntaxin 8) | 1 | 5.66e5 | 1.83e5 | 82386 | 7432 | 2212 | inactive
Spc105R (Spc105-related) | 1 | 85185 | 86912 | – | 3562 | 2869 | inactive
Toll-7 | 1 | 1.40e5 | 73766 | – | 3831 | 5299 | inactive
Eaat2 (Excitatory amino acid transporter 2) | 1 | 6.34e5 | 2.90e5 | – | 33147 | 11963 | inactive
Eaat2 (Excitatory amino acid transporter 2) | 2 | 1.12e5 | 1.15e5 | – | 4866 | 4985 | inactive
CG8260 | 1 | 66483 | 1.64e5 | – | 2875 | 6848 | inactive
CG15673 | 1 | 78200 | 50040 | – | 2240 | 4490 | inactive
CG7453 | 1 | 92688 | 2.18e5 | – | 2820 | 9344 | inactive
SF1 (Splicing factor 1) | 1 | 53322 | 84057 | – | 1707 | 2041 | inactive
CG1896 | 1 | 94998 | 65125 | – | 2242 | 2007 | inactive
